PubChem BioAssay AID1259405 – NCATS | 2018
Aim: 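Mouse-designed siRNAs used to find CHO productivity engineering targets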 (primary screen). Cell system: Chinese hamster CHO-K1 ovary cells with stable secreted eGFP expression. Knock-down reagent: single siRNA against mouse genes, 0.8 pmol siRNA per well (2 µl of 400 nM stock). Time to read-out: 3 days. Measurement: 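Percent of the per-plate non-targeting control median for intracellular GFP per well by laser scanning cytometry and for cell viability by ATP luminescence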. Direction: GFP, % of control: higher = more GFP per well, higher productivity; viability (ATP), % of control: higher = more viable cells (more ATP). Active means: 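Called active when intracellular GFP, relative to negative control, is at or above 120%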.
In all, the deposit lists about 50,000 reagents; shown is a part drawn at random. Over the whole deposit, about 4,000 (8%) were called active. 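Mouse siRNA library applied to hamster cells; one well for each siRNA.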 A number with no mark means an inactive call.

Knock-down of Pcdhb2 (protocadherin beta 2) [SID363573270] came out at: GFP, % of control 37; viability (ATP), % of control 46.
Against Pcdhb2 (protocadherin beta 2) [SID363588509] the deposit lists GFP, % of control 109; viability (ATP), % of control 88.2.
After knock-down of Rbmy (RNA binding motif protein, Y chromosome) [SID363554921], the screen gave GFP, % of control 50.8; viability (ATP), % of control 59.3.
Rbmy (RNA binding motif protein, Y chromosome) [SID363568368] gave GFP, % of control 81.5; viability (ATP), % of control 71.4.
Against Rbmy (RNA binding motif protein, Y chromosome) [SID363586427], the values are GFP, % of control 79.2; viability (ATP), % of control 93.3.
Or51f23 (olfactory receptor family 51 subfamily F member 23) [SID363554354] scored GFP, % of control 99.3; viability (ATP), % of control 87.5.
After knock-down of Or51f23 (olfactory receptor family 51 subfamily F member 23) [SID363567801], the record shows GFP, % of control 155 (active); viability (ATP), % of control 68.2.
Or51f23 (olfactory receptor family 51 subfamily F member 23) [SID363585158] scored GFP, % of control 56; viability (ATP), % of control 76.9.
For Or51f23 (olfactory receptor family 51 subfamily F member 23) [SID363589672] the deposit lists GFP, % of control 68.2; viability (ATP), % of control 98.7.
For Or51f23 (olfactory receptor family 51 subfamily F member 23) [SID363589673] the deposit lists GFP, % of control 130 (active); viability (ATP), % of control 79.6.
After knock-down of Or51f23 (olfactory receptor family 51 subfamily F member 23) [SID363589710], the record shows GFP, % of control 134 (active); viability (ATP), % of control 96.
Silencing of Pprc1 [SID363584481] came out at: GFP, % of control 81.1; viability (ATP), % of control 78.6.
For Pprc1 [SID363589511] the deposit lists GFP, % of control 171 (active); viability (ATP), % of control 147.
For Vsig2 (V-set and immunoglobulin domain containing 2) [SID363555467], the values are GFP, % of control 69.9; viability (ATP), % of control 90.8.
Vsig2 (V-set and immunoglobulin domain containing 2) [SID363564128] scored GFP, % of control 59.5; viability (ATP), % of control 78.9.
With knock-down of Vsig2 (V-set and immunoglobulin domain containing 2) [SID363587674], the screen gave GFP, % of control 65.6; viability (ATP), % of control 101.
Acox3 (acyl-Coenzyme A oxidase 3, pristanoyl) [SID363568900] scored GFP, % of control 115; viability (ATP), % of control 116.
With knock-down of Acox3 (acyl-Coenzyme A oxidase 3, pristanoyl) [SID363576292], the screen gave GFP, % of control 84.6; viability (ATP), % of control 68.3.
After knock-down of Acox3 (acyl-Coenzyme A oxidase 3, pristanoyl) [SID363579108], the screen gave GFP, % of control 54; viability (ATP), % of control 76.4.
With knock-down of Cpt1b (carnitine palmitoyltransferase 1b, muscle) [SID363570505], the record shows GFP, % of control 105; viability (ATP), % of control 71.5.
Against Cpt1b (carnitine palmitoyltransferase 1b, muscle) [SID363579305], the values are GFP, % of control 97.1; viability (ATP), % of control 134.
Cpt1b (carnitine palmitoyltransferase 1b, muscle) [SID363583177] gave GFP, % of control 87; viability (ATP), % of control 91.4.
Gnai2 (G protein subunit alpha i2) [SID363570094] scored GFP, % of control 115; viability (ATP), % of control 86.
Silencing of Gnai2 (G protein subunit alpha i2) [SID363576430] resulted in: GFP, % of control 138 (active); viability (ATP), % of control 75.2.
Depletion of Gnai2 (G protein subunit alpha i2) [SID363579598] gave: GFP, % of control 129 (active); viability (ATP), % of control 47.9.
Against Rnf141 (ring finger protein 141) [SID363555043], the entry reads GFP, % of control 104; viability (ATP), % of control 82.7.
With knock-down of Rnf141 (ring finger protein 141) [SID363568490], the screen gave GFP, % of control 54.4; viability (ATP), % of control 69.1.
After knock-down of Rnf141 (ring finger protein 141) [SID363586549], the record shows GFP, % of control 83.6; viability (ATP), % of control 86.2.
After knock-down of Fbxw2 (F-box and WD-40 domain protein 2) [SID363540087], the record shows GFP, % of control 48.5; viability (ATP), % of control 69.2.
For Fbxw2 (F-box and WD-40 domain protein 2) [SID363561388], the values are GFP, % of control 118; viability (ATP), % of control 69.3.
Fbxw2 (F-box and WD-40 domain protein 2) [SID363564424] gave GFP, % of control 64; viability (ATP), % of control 83.2.
Knock-down of Lst1 (leukocyte specific transcript 1) [SID363540310] came out at: GFP, % of control 57.8; viability (ATP), % of control 59.4.
For Lst1 (leukocyte specific transcript 1) [SID363542062], the values are GFP, % of control 174 (active); viability (ATP), % of control 82.3.
Lst1 (leukocyte specific transcript 1) [SID363566978] gave GFP, % of control 107; viability (ATP), % of control 72.9.
Depletion of Sirt1 (sirtuin 1) [SID363584524] came out at: GFP, % of control 80.5; viability (ATP), % of control 85.1.
Sirt1 (sirtuin 1) [SID363589554] gave GFP, % of control 55.2; viability (ATP), % of control 75.9.
With knock-down of Efhd2 (EF hand domain containing 2) [SID363539620], the screen gave GFP, % of control 70.1; viability (ATP), % of control 67.6.
Efhd2 (EF hand domain containing 2) [SID363560921] showed GFP, % of control 59; viability (ATP), % of control 35.4.
For Efhd2 (EF hand domain containing 2) [SID363565011] the deposit lists GFP, % of control 80.7; viability (ATP), % of control 59.4.
Ifitm10 (interferon induced transmembrane protein 10) [SID363552203] showed GFP, % of control 66.3; viability (ATP), % of control 63.8.
With knock-down of Ifitm10 (interferon induced transmembrane protein 10) [SID363585339], the record shows GFP, % of control 83.4; viability (ATP), % of control 85.
With knock-down of Ifitm10 (interferon induced transmembrane protein 10) [SID363585690], the screen gave GFP, % of control 116; viability (ATP), % of control 122.
